Data as given in PubChem BioAssay AID1053208 (Peter MacCallum Cancer Centre, 2014).
This is one part, drawn at random, of about 17,000 reagents. In the full data, 788 (4.7%) are marked active. 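Calls rest on z-score classes alone; an extra cut-off of viability at most 70% of control was not applied to them.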 The numbers tell different reagents against one gene apart. Further read-outs or replicates are left out here.

- Purpose: 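Genes whose silencing cuts survival of bone tumour cells only with doxorubicin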 (primary screen)
- System: mouse osteosarcoma cells, early-passage culture from an engineered mouse model of fibroblastic bone tumour
- Reagents: siRNA pool against mouse genes, 40 nM
- Duration: about 120 h (48 h before drug, then 72 h with drug)
- Treatment: doxorubicin 100 nM for 72 h, roughly 30-40% inhibitory dose
- Detection: 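Luminescent ATP signal taken as viability with or without 100 nM doxorubicin for 72 h; mean of two wells set against non-targeting siRNA and turned into robust z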
- Reading the numbers: viability z-score with doxorubicin: higher = more viable cells under doxorubicin; viability z-score without drug: higher = more viable cells with knock-down alone; z-score of drug to no-drug ratio: higher = less drug sensitisation by knock-down
- Active means: 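a pool counts as active when its viability z-score with doxorubicin is -2 or below and its z-score without drug lies between -2 and 2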

gene | reagent no. | combined z-score class | viability z-score with doxorubicin | viability z-score without drug | z-score of drug to no-drug ratio | Outcome
Tmem37 | 1 | no change with or without drug | 0.67 | -1.01 | 1.57 | inactive
Prrt1 | 1 | no change with or without drug | 0.79 | 0.34 | 0.67 | inactive
Tmem106c | 1 | no change with or without drug | 1.12 | -0.84 | 2.02 | inactive
Podxl | 1 | no change with or without drug | 0.34 | -0.84 | 1.12 | inactive
Cd200r1 | 1 | no change with or without drug | -0.56 | -1.01 | 0.22 | inactive
Kif13a | 1 | no change with or without drug | -0.56 | 0 | -0.45 | inactive
Ndufa10 | 1 | no change with or without drug | 0.67 | -0.84 | 1.46 | inactive
Mrgpra5 | 1 | no change with or without drug | -1.12 | -0.51 | -0.79 | inactive
Ppp6r1 | 1 | no change with or without drug | 1.46 | 1.69 | 0.45 | inactive
Tigd3 | 1 | low cell count with doxorubicin only | -2.47 | -1.52 | -1.57 | active
Hspb8 | 1 | no change with or without drug | 0.67 | -0.17 | 0.9 | inactive
Aacs | 1 | no change with or without drug | 0.34 | -0.84 | 1.12 | inactive
Skint4 | 1 | no change with or without drug | -0.56 | -0.51 | -0.11 | inactive
Pxylp1 | 1 | no change with or without drug | 0.79 | 0.51 | 0.56 | inactive
Cog2 | 1 | high cell count with doxorubicin only | 2.59 | 1.35 | 1.8 | inactive
Hikeshi | 1 | high cell count with and without drug | 2.25 | 2.19 | 0.9 | inactive
Aoah | 1 | no change with or without drug | 0.67 | -0.17 | 0.9 | inactive
Edaradd | 1 | no change with or without drug | 0 | 0.51 | -0.22 | inactive
Tex13c3 | 1 | no change with or without drug | 1.12 | 0.67 | 0.79 | inactive

Laid out differently: results already given
{"gene": "Ndufa10", "reagent no.": 1, "combined z-score class": "no change with or without drug", "viability z-score with doxorubicin": 0.67, "viability z-score without drug": -0.84, "z-score of drug to no-drug ratio": 1.46, "Outcome": "inactive"}
{"gene": "Mrgpra5", "reagent no.": 1, "combined z-score class": "no change with or without drug", "viability z-score with doxorubicin": -1.12, "viability z-score without drug": -0.51, "z-score of drug to no-drug ratio": -0.79, "Outcome": "inactive"}
{"gene": "Ppp6r1", "reagent no.": 1, "combined z-score class": "no change with or without drug", "viability z-score with doxorubicin": 1.46, "viability z-score without drug": 1.69, "z-score of drug to no-drug ratio": 0.45, "Outcome": "inactive"}

Continued.
gene | reagent no. | combined z-score class | viability z-score with doxorubicin | viability z-score without drug | z-score of drug to no-drug ratio | Outcome
Josd2 | 1 | no change with or without drug | 1.57 | 1.85 | 0.45 | inactive
Fbl | 1 | low cell count with and without drug | -2.7 | -3.54 | -0.34 | inactive
Muc5b | 1 | no change with or without drug | -1.57 | -1.18 | -0.79 | inactive
Maml3 | 1 | no change with or without drug | 0.9 | 0.17 | 0.9 | inactive
Sun3 | 1 | no change with or without drug | -1.01 | -1.18 | -0.11 | inactive
Pten | 1 | no change with or without drug | 0.56 | 0.51 | 0.34 | inactive
Pten | 2 | high cell count with doxorubicin only | 2.02 | 0.51 | 1.8 | inactive
Bace1 | 1 | no change with or without drug | -0.22 | 1.18 | -0.9 | inactive
Uri1 | 1 | high cell count without drug only | -0.67 | 2.19 | -1.91 | inactive
Or7g25 | 1 | low cell count with doxorubicin only | -2.25 | -0.17 | -2.14 | active
Dnase2a | 1 | no change with or without drug | 0.56 | 0.51 | 0.34 | inactive
Zfp317 | 1 | no change with or without drug | 1.91 | 1.52 | 1.01 | inactive
Znrf1 | 1 | no change with or without drug | 1.01 | 0.17 | 1.01 | inactive
Ncapd3 | 1 | no change with or without drug | 0 | 0.34 | -0.11 | inactive
Vmn2r1 | 1 | no change with or without drug | -1.57 | -1.18 | -0.79 | inactive
